The source of these data is PubChem BioAssay AID2685 (National Center for Advancing Translational Sciences (NCATS), 2010).

The nature of this assay: qHTS Assay for Lipid Storage Modulators in Drosophila S3 Cells.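 As to cell number change: cells counted by Cell Tracker Red CMTPX staining in the red channel.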 As to conditions: BODIPY lipid droplet fluorescence, 18-24 h; for cell number change: measured here: cell count max response, cells fed with added oleic acid. The gist of the method: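 Laser-scanning cytometry quantifies lipid droplet accumulation (500–530 nm total intensity; droplet/cell object ratio) in oleic acid-fed (400 uM added) Drosophila S3 cells treated with a concentration series. 20 uM Triacsin C defined 100% inhibition.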
(In general: In qHTS, concentration-response curves come from the screen itself.)

The mark [1] stands for this setting: measured here: cell number channel AC50, cells fed with added oleic acid.
The mark [2] stands for this setting: measured here: lipid fluorescence (Fed channel) AC50, cells fed with added oleic acid.

This is one part of the list. Further columns of the screen follow, without active or inactive calls. Compounds called inactive in the main read-out are mostly missing here. The note in brackets gives the kind of curve behind each potency; many fits are weak.

As usually defined, the AC50 is the concentration giving half of the maximal activity seen. Higher therefore signals activity only at high concentration. Consider `CCOC(=O)N1CCC(C(N)=O)CC1`, for which the cell number change was -84.2%. Further, the AC50 under setting [1] was 29.1 µM [falling, single point]. Also, the AC50 under setting [2] was 23.1 µM [falling, single point].

Consider `COc1ccc2nc(NC(=O)CSc3nccc(C)n3)sc2c1`, for which the cell number change is -8.92%. Further, the AC50 under setting [2] was 29.1 µM [falling, single point].

As to `Cc1ccc2nc(-c3cccc(S(=O)(=O)N4CC(C)OC(C)C4)c3)cn2c1` (centres undefined), the AC50 under setting [2] was 0.291 µM [falling, full curve].

On to `O=C(C[n+]1ccc(C(=O)N/N=C/c2ccc(Br)cc2)cc1)c1ccccc1`, for which the AC50 reads like this: under setting [1], 0.731 µM [rising, single point]; under setting [2], 1.03 µM [rising, full curve].

Consider `CCN(CCCNC(=O)CN1C(=O)COc2ccccc21)c1cccc(C)c1`, for which the AC50 under setting [2] is 6.51 µM [rising, single point].

As for `Cc1c(NC(=O)NCCN2C(=O)C3C4C=CC(C4)C3C2=O)c(=O)n(-c2ccccc2)n1C` (centres undefined), the cell number change was determined as 0.546%.

`Cc1ccc2nc(-c3ccc(NS(=O)(=O)c4ccc(F)c(F)c4)cc3)sc2c1`: the cell number change is -32%. Also, the AC50 under setting [1] is 0.00517 µM [falling, full curve, poor fit]. The AC50 under setting [2] was 29.1 µM [falling, single point].

As for `COc1ccccc1C(=O)C(O)c1ccccc1OC` (centres undefined), the cell number change was -149%. For the same compound, the AC50 under setting [1] was 25.9 µM [falling, partial curve]. Moreover, under setting [2], the AC50 was 29.1 µM [falling, single point].

As for `CC(C)[C@H](NC(=O)NCc1ccco1)C(=O)O`, the cell number change was -14.1%.

Consider `Cn1c(/C(C#N)=C(\O)c2ccc(Br)s2)nc2ccccc21`, for which the cell number change is -4.94%. The AC50 under setting [2] is 0.651 µM [rising, single point].

As for `COc1ccc(-n2ncc3c2CC(C)(C)CC3NC(=O)c2cn[nH]c2)cc1` (centres undefined), the cell number change worked out at 9.63%. In addition, the AC50 under setting [2] was 7.31 µM [falling, single point].

Regarding `O=C1CC(NS(=O)(=O)c2ccc([N+](=O)[O-])cc2)CN1c1ccc(Cl)cc1` (centres undefined), the cell number change was 24.8%. The AC50 under setting [1] was 2.91 µM [rising, full curve, poor fit].

Turning to `CC1(C)CC2CC(C)(CN2Cc2c(O)ccc3ccccc23)C1` (centres undefined), the cell number change is -6.02%. Besides, the concentration at half-maximal activity (AC50) under setting [2] is 6.51 µM [rising, single point].

For `Cc1cc(C)n(S(=O)(=O)c2ccc(C(C)(C)C)cc2)n1`, the cell number change was -56.6%. Moreover, the half-maximal activity concentration (AC50) under setting [1] was 29.1 µM [falling, single point]. Under setting [2], the AC50 is 6.51 µM [falling, single point].

`COCCCNC(=O)c1cn(CCOC)c(=O)c2c1c1ccccc1n2C`: the cell number change was 15.3%. In addition, under setting [1], the AC50 was 5.17 µM [rising, single point]. Further, the AC50 under setting [2] was 6.51 µM [rising, single point].

Consider `O=C1NCC(c2ccccc2)C1C(=O)N/N=C\c1ccc(-c2ccc(Cl)c(Cl)c2)o1` (centres undefined), for which the cell number change was -34.1%. Moreover, under setting [1], the AC50 was 29.1 µM [falling, single point].

As for `COc1ccc(C(=O)O/N=C(\N)Cc2ccc([N+](=O)[O-])cc2)c(OC)c1`, the cell number change is 21.8%. The concentration at half-maximal activity (AC50) under setting [2] is 14.6 µM [rising, single point].

With `CC(C)(C)OC(=O)[C@H](Cc1ccccc1)NC(=O)c1[nH]cnc1C(=O)N[C@@H](Cc1ccccc1)C(=O)OCc1ccccc1`, the cell number change stood at 54.5%. The AC50 under setting [1] was 16.4 µM [rising, single point]. In addition, the AC50 under setting [2] was 4.61 µM [falling, full curve].

For `NNc1ccccc1C(F)(F)F`, the cell number change was -33.2%.

For the compound `COc1ccc(C(=O)N(CN2CCCC2=O)c2nccs2)cc1OC`, the cell number change turned out to be 20.4%. For the same compound, the half-maximal activity concentration (AC50) under setting [1] is 0.366 µM [rising, full curve, poor fit].

Consider `COc1ccccc1CNC(=O)CN1CCN(S(=O)(=O)c2cccs2)CC1`, for which the cell number change was -25.6%. Further, the AC50 under setting [1] is 2.59 µM [rising, single point]. The AC50 under setting [2] is 32.6 µM [falling, single point].

For the compound `COc1cccc(CNC(=O)CCC2CCCN(C(=O)c3cscn3)C2)c1` (centres undefined), the cell number change was 2.31%. In addition, under setting [2], the AC50 is 0.0651 µM [rising, full curve, poor fit].

As for `CC1CC(C)CN(c2cc(=O)n(Cc3ccc(F)cc3)c(=O)[nH]2)C1` (centres undefined), the cell number change stood at 7.76%.

Consider `CCCCNC(=O)c1ccc(NS(=O)(=O)c2ccc3[nH]c(=O)[nH]c3c2)cc1`, for which the cell number change is -13.5%. Besides, the AC50 under setting [2] was 0.58 µM [falling, single point].

For `O=C1CCCCC1Sc1nnc(Nc2ccccc2)s1` (centres undefined), the cell number change amounted to 18.8%. Further, the concentration at half-maximal activity (AC50) under setting [1] is 0.164 µM [falling, full curve].

In the case of `Cc1ccc(C(=O)Nc2nc(COc3ccccc3)cs2)s1`, the cell number change was determined as 62.5%. For the same compound, the concentration at half-maximal activity (AC50) under setting [1] is 16.4 µM [rising, partial curve, poor fit]. Further, the AC50 under setting [2] is 20.6 µM [rising, partial curve].

Take `CCCCCCSc1cc(-c2nc3cnccn3c2NCc2ccccc2)ccc1OC`: the cell number change was -14.4%. The AC50 under setting [2] was 29.1 µM [rising, single point].

`CCc1c(C)sc(NC(=S)Nc2nc(C)cc(C)n2)c1C(=O)OC`: the cell number change is -44.4%.

For the compound `CCCn1c(=O)c(C(=O)NCc2ccccn2)c(O)c2ccccc21`, the cell number change is 62.5%. For the same compound, under setting [1], the AC50 was 2.31 µM [rising, full curve, poor fit]. Also, the AC50 under setting [2] was 0.058 µM [rising, full curve, poor fit].

With `CCOC(=O)Cn1c(=NC(=O)CC)sc2c(C)cc(C)cc21`, the cell number change stood at 8.3%. Also, the AC50 under setting [2] is 6.51 µM [rising, single point].

Consider `CCN(Cc1ccc2c(c1)OCO2)C(=O)/C=C/c1cccc(Br)c1`, for which the cell number change came out at 4.5%.

For the compound `CCCCc1nnc(NC(=O)COC)s1`, the cell number change is -0.955%. Under setting [1], the AC50 is 0.00461 µM [falling, full curve, poor fit]. Besides, the AC50 under setting [2] was 0.00461 µM [falling, full curve, poor fit].

Consider `CNc1nc(OCCNC(=O)Nc2ccccc2)nc(N2CCOCC2)n1`, for which the AC50 under setting [1] is 0.92 µM [rising, full curve] and the AC50 under setting [2] is 6.51 µM [falling, full curve].

On to `O=C(CN1C(=O)C2C3C=CC(C3)C2C1=O)OCC(=O)c1ccc([N+](=O)[O-])cc1` (centres undefined), for which the cell number change is -20.6%.

On to `COc1ccc(CC(=O)Nc2ccc(-c3noc(-c4ccccc4OC)n3)cc2)cc1`, for which the cell number change stood at 23.4%. Besides, the AC50 under setting [1] was 0.411 µM [rising, partial curve, poor fit]. The AC50 under setting [2] was 0.411 µM [rising, full curve].

On to `Cn1c(CCN2CCN(c3ccc(F)cc3)CC2)nc2cc(NC(=O)c3ccco3)ccc21`, for which the cell number change is 30.1%. Also, the concentration at half-maximal activity (AC50) under setting [1] was 20.6 µM [rising, single point].
